The list shows a part of the results.

The chains behind the UniProt entries cited, without tags or fusion partners.
UniProt Q0JBA9, entry or part of it: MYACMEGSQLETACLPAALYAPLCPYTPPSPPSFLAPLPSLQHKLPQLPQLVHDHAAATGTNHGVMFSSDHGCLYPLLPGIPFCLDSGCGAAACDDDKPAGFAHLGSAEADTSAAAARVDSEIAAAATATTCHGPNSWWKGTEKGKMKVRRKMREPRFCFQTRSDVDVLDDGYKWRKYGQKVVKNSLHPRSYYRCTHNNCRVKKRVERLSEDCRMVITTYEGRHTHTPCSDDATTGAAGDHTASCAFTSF

The target of this experiment is OsWRKY34 (Oryza sativa, UniProt Q0JBA9 1-250). Description: protein-binding microarray (RPBM); PBS, 2% BSA, 51.3 ng/ul salmon testes DNA, 50 uM zinc acetate, 200 nM TF, 25 C, 1 h; high values mean tight binding. The following applies: protein: recombinant; tags: N-terminal polyhistidine and DsRed monomer fusion (pET32a); label: CyDye5-dUTP incorporated in the synthesized complementary strand; 3' TTTTT single-stranded linker to array surface; dsDNA, one strand shown. The method, boiled down: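 Ni–NTA purification followed expression in E. coli BL21-CodonPlus of transcription factors fused N-terminally to a polyhistidine tag and DsRed. At 200 nM in PBS with 2% BSA, salmon testes DNA and 50 µM zinc acetate, the protein was incubated for 1 h at 25 °C with a custom Agilent array that had been primer-extended with Cy5-dUTP and blocked with 2% BSA. After washing, the array was read on an Axon 4000B scanner. The binding signal is per-feature fluorescence intensity in arbitrary units.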
Regarding “CCTGTTTGCCAGTCCTTACATTCTTCGAGAAGTAGATCCCCGGAGTCACCTAGTGCAG”, the binding signal is 8530 fluorescence intensity (a.u.).
In the case of “TTATTTATAGCTCCGCCATGCACGCATCCATGTCGATCGTCGGAGTCACCTAGTGCAG” it was 8840 fluorescence intensity (a.u.); in that of “AGATTCTAGACATTACCAGTTTACCACAGCTTTCCTACTTCGGAGTCACCTAGTGCAG”, 8090 fluorescence intensity (a.u.); in that of “GCTGCCGTCCGTTGAAATATTTACATTTTGGTCCTCGTGACGGAGTCACCTAGTGCAG”, 12300 fluorescence intensity (a.u.).
In the case of “ACACACTACCTCTACATGTTGAATACCTCTTCTGTCCCAACGGAGTCACCTAGTGCAG” it was 8030 fluorescence intensity (a.u.).
Regarding “CGTCCAGGATGAATCTCATCCAATTTGCTTTTCTCTATATCGGAGTCACCTAGTGCAG”, the binding signal was 8930 fluorescence intensity (a.u.).
In the case of “GCTACAAATCTGTAACCCGCTGCCCTTCTCTCTCCTCATTCGGAGTCACCTAGTGCAG” it was 8550 fluorescence intensity (a.u.); in that of “GACCCCACTGCTATTTTTTTCTGGATCCGCCAATAGCCAACGGAGTCACCTAGTGCAG”, 10000 fluorescence intensity (a.u.).
Turning to “CCTATGTATTTCTCGTGTTGGTTAGACAGTTCACTTATTGCGGAGTCACCTAGTGCAG”, the binding signal was 8660 fluorescence intensity (a.u.).
In the case of “GCGGGAGGAGGAGGGGAGGGAATCGCAGCTGCTGCGGCGGCGGAGTCACCTAGTGCAG” it was 8280 fluorescence intensity (a.u.).
In the case of “CGCCGCCGCAGCCGCCGCCATCCCACCGCCGGACTCCGGCCGGAGTCACCTAGTGCAG” it was 11200 fluorescence intensity (a.u.); in that of “GCCGTTCTCGGCGCGCCGCCTCGTCCCGGCGCTCTTCCCGCGGAGTCACCTAGTGCAG”, 8150 fluorescence intensity (a.u.); in that of “TATTCATCTCAACTTTTCTTTTTGAATGCGCTTATAATTTCGGAGTCACCTAGTGCAG”, 8440 fluorescence intensity (a.u.).
“GTCAAAACTTCTTACTCTTATCAATTGTTTGTGCAGTTTGCGGAGTCACCTAGTGCAG”: the binding signal is 10600 fluorescence intensity (a.u.).
In the case of “CTACCTTTATACATGCCCTTACACTGTTTTACCATATTATCGGAGTCACCTAGTGCAG” it was 11500 fluorescence intensity (a.u.).
In the case of “AACAATATATCAGGCAAAACTCTTACATTCTTTTTTTTGGCGGAGTCACCTAGTGCAG” it was 9140 fluorescence intensity (a.u.); in that of “GGCTCGGCCCCGGTCCCGGCGCGCGCCCTCAACGGGATCCCGGAGTCACCTAGTGCAG”, 9640 fluorescence intensity (a.u.).
Turning to “GCCACTAATCTTGTTCCTGCTGCATGCCAACCTGTCTTGACGGAGTCACCTAGTGCAG”, the binding signal is 9060 fluorescence intensity (a.u.).
In the case of “CTTTGACTCAACATTGGTAACTTTGTCTATATAGGAGTATCGGAGTCACCTAGTGCAG” it was 8980 fluorescence intensity (a.u.); in that of “GTGTGTTGTATCGCCACAATGTTCTTATAGTTTCTTTTTTCGGAGTCACCTAGTGCAG”, 11500 fluorescence intensity (a.u.).
As to “TCTCATCTATCTCCTCTACTATCTTATTCACCTCAGTATTCGGAGTCACCTAGTGCAG”, the binding signal is 10400 fluorescence intensity (a.u.).
In the case of “CCATCTGCCTATCTATCTCTCGCAATTCTGGCGGCGCGCTCGGAGTCACCTAGTGCAG” it was 9410 fluorescence intensity (a.u.); in that of “TATATATATATATATATATATAAAAGTTACTTTTAGATTTCGGAGTCACCTAGTGCAG”, 11500 fluorescence intensity (a.u.).
In the case of “ATCTACGTACTCCCCTTGTCGTCGTGTACAAACATTTACTCGGAGTCACCTAGTGCAG”, the binding signal is 9650 fluorescence intensity (a.u.).
In the case of “CTAACATAGCCGTTGACTTGACATAGTATGTGATGTTCAGCGGAGTCACCTAGTGCAG” it was 9570 fluorescence intensity (a.u.); in that of “ATTGTAGTGCTCGTACTAGTACTGGTTTCTTTTGTTGTTCCGGAGTCACCTAGTGCAG”, 10300 fluorescence intensity (a.u.); in that of “ATGTTACCTTTCCCGCCTCCTTTTCGCTTCTTTTATCCTCCGGAGTCACCTAGTGCAG”, 9400 fluorescence intensity (a.u.).
In the case of “TGACTACTTGGCCATTTCAACTTCCTAAATTCGTATATCGCGGAGTCACCTAGTGCAG” it was 10900 fluorescence intensity (a.u.); in that of “ATCTCTCTCGATTCGTAGAGAGTTTGGTTGGTTGATAGCTCGGAGTCACCTAGTGCAG”, 9700 fluorescence intensity (a.u.).
On to “CATCGCTTCTCCACCGTTGCAGCCTGCCACCCGTCGTGGCCGGAGTCACCTAGTGCAG”, for which the binding signal is 8670 fluorescence intensity (a.u.).
In the case of “GCATTCACTCCATCGCACCACTTCATGCCGCAAAATGTTTCGGAGTCACCTAGTGCAG” it was 9970 fluorescence intensity (a.u.); in that of “GTGTCGGCGGAGGGGCGCGCGGCGGGGTCGGCGGAGGCGCCGGAGTCACCTAGTGCAG”, 8590 fluorescence intensity (a.u.).
In the case of “ACCGCCTCCATCGGCCATTCAACCTGCAAGCGCTCGACCGCGGAGTCACCTAGTGCAG” it was 9130 fluorescence intensity (a.u.); in that of “CGGGCGGATGAGGGGCGGCGATGGGCGGGCAAGGGGCGTGCGGAGTCACCTAGTGCAG”, 12500 fluorescence intensity (a.u.).
In the case of “CAGTCAGTTTCCTCATCCTCTTTGCATCCTCCGCGCCCTCCGGAGTCACCTAGTGCAG” it was 9760 fluorescence intensity (a.u.).
For “GTACGACAGTAGTTGTTTTTCTCGCTTTTGATTTTGAGTCCGGAGTCACCTAGTGCAG”, the binding signal was 8560 fluorescence intensity (a.u.).
Regarding “GCTTTCTTCTCTCTCTTCTCTTTTCTTCTCGATATGAGGTCGGAGTCACCTAGTGCAG”, the binding signal was 9360 fluorescence intensity (a.u.).
In the case of “AACGTCTTTTCTCAATTGTGTTATTGCAGTTTCATGTGAGCGGAGTCACCTAGTGCAG” it was 8100 fluorescence intensity (a.u.); in that of “GTTGCCTCTCGCTCGCTGCTGCGGCTACTCATTGATCCTGCGGAGTCACCTAGTGCAG”, 9050 fluorescence intensity (a.u.); in that of “CCCTCTGTTCTTTTCTCTTCTATTTCATCTCCTCGAAATACGGAGTCACCTAGTGCAG”, 9760 fluorescence intensity (a.u.).
In the case of “GCCAGCGTTCCCTTGTTGCTCTGCGCCGCCGCCGGGAACGCGGAGTCACCTAGTGCAG” it was 8640 fluorescence intensity (a.u.); in that of “GGTTATCTGAGTTGGTTGGTTATGGCTTGAATTGCTTCTTCGGAGTCACCTAGTGCAG”, 15300 fluorescence intensity (a.u.).
